PubChem BioAssay AID652272 – Drosophila RNAi Screening Center | 2013
Assay: 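Finding fly genes that regulate Hedgehog signal transduction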 (primary screen). Cells: Drosophila clone 8 (Cl8) cells. Reagent: long dsRNA against Drosophila genes. Detection: 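Firefly light from a Hedgehog-responsive ptc promoter reporter and Renilla reference light, both read on a plate reader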. Scale: firefly Hh reporter signal: higher = more ptc reporter light; Renilla reference signal: higher = more Renilla control light. Rule for the call: 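Called a hit if the two-replicate mean z-score lies below -2 or above +3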. Calls: active = hit: reporter lowered or raised; inactive = not a hit.
The screen tested about 21,000 reagents; shown is a random part of those that have a named target and a result. Over the whole deposit, 503 (2.4%) were called active. 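Raw plate light values, not normalised; calls rest on replicate z-scores that were not deposited; hits include reporter decreases as well as increases.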 Names joined by + are all predicted targets of the reagent. Not given: the amount of reagent, the time to read-out.

Gene | dsRNA | firefly Hh reporter signal, replicate 1 | firefly Hh reporter signal, replicate 2 | firefly Hh reporter signal, replicate 3 | Renilla reference signal, replicate 1 | Renilla reference signal, replicate 2 | outcome
CG9692 | DRSC11091 | 1.09e5 | – | – | 2113 | 5604 | inactive
CG30447 | DRSC05820 | 1.15e5 | 2.74e5 | – | 3222 | 10904 | inactive
Gem2 | DRSC09721 | 77217 | 59936 | – | 3184 | 2305 | inactive
CG11249 | DRSC11645 | 87525 | 1.28e5 | – | 3461 | 3683 | inactive
meng | DRSC02134 | 85474 | 53126 | – | 2336 | 4793 | inactive
Sema1a | DRSC03433 | 93253 | 54177 | – | 2581 | 4166 | inactive
X11L | DRSC19958 | 1.64e5 | 7.30e5 | 1.45e5 | 4112 | 41680 | inactive
X11L | DRSC19959 | 76242 | 2.55e5 | – | 1832 | 9133 | inactive
CG1671 | DRSC06617 | 52512 | 59585 | – | 2529 | 2548 | inactive
CG32373 | DRSC08895 | 88618 | 2.17e5 | – | 2282 | 8100 | inactive
CG10764 | DRSC06000 | 1.09e5 | 77402 | – | 6080 | 3756 | inactive
p38b | DRSC03586 | 1.19e5 | 60160 | – | 2945 | 5971 | inactive
Cluap1 | DRSC20637 | 1.13e5 | 3.72e5 | – | 3894 | 15853 | inactive
brv3 | DRSC18657 | 56960 | 1.69e5 | – | 1719 | 7444 | inactive
Nup75 | DRSC06947 | 60852 | 37045 | – | 4099 | 2226 | active
Sgs5 | DRSC16862 | 88746 | 85504 | – | 3172 | 1883 | inactive
HnRNP-K | DRSC07585 | 1.63e5 | 7.25e5 | 1.45e5 | 8235 | 43514 | inactive
Cks85A | DRSC16562 | 82864 | 1.50e5 | – | 3111 | 6640 | inactive
CG14292 | DRSC14772 | 5.59e5 | 1.01e5 | – | 24757 | 2860 | inactive
Rab9Db + Rab9D + Rab9E | DRSC17656 | 5.71e5 | 2.04e5 | – | 32093 | 4834 | inactive
CG18088 | DRSC02654 | 85722 | 64106 | – | 2219 | 5994 | inactive
dia | DRSC03519 | 65035 | 64757 | – | 1833 | 5958 | inactive
CG13474 | DRSC10018 | 78459 | – | – | 2778 | 2640 | inactive
CG8366 | DRSC07153 | 89913 | 61205 | – | 2469 | 4720 | inactive
Ama | DRSC12489 | 79609 | 50407 | – | 3307 | 1864 | inactive
SoYb | DRSC02901 | 1.12e5 | 31443 | – | 2864 | 4775 | inactive
Atg10 + CG18853 + CG12822 | DRSC20757 | 4.52e5 | 1.87e5 | – | 30800 | 5499 | active
mRpL49 | DRSC19908 | 73530 | 1.77e5 | – | 2225 | 6688 | inactive
NT5E-2 | DRSC06893 | 85632 | 75523 | – | 3609 | 2708 | inactive
Tango2 | DRSC19394 | 90653 | 72882 | – | 1639 | 1042 | inactive
CG12219 | DRSC17829 | 61264 | 2.47e5 | – | 2013 | 9184 | inactive
dachs | DRSC01026 | 7.04e5 | 3.39e5 | – | 38986 | 14898 | inactive
dachs | DRSC02072 | 72457 | 62731 | – | 4016 | 861 | inactive
dachs | DRSC02191 | 1.02e5 | 73690 | – | 2583 | 6243 | inactive
udt | DRSC14214 | 5.12e5 | 1.36e5 | – | 23952 | 4016 | inactive
Tnks | DRSC14154 | 4.82e5 | 1.12e5 | – | 23084 | 2944 | inactive
CG2790 | DRSC04045 | 1.12e5 | 83176 | – | 3632 | 3268 | inactive
CG34426 | DRSC09977 | 49644 | 69144 | – | 6880 | 4550 | inactive
Cyp1 | DRSC20234 | 96297 | 82009 | – | 1825 | 1072 | inactive
so | DRSC07693 | 2.19e5 | 2.14e5 | 1.36e5 | 16758 | 7057 | active
CG14518 | DRSC14870 | 1.21e5 | 1.20e5 | – | 4978 | 2868 | inactive
Cyp6t3 | DRSC07388 | 80762 | 34484 | – | 2279 | 3273 | inactive
Tbc1d22 | DRSC15867 | 1.11e5 | 89885 | – | 4176 | 3175 | inactive
Vajk2 | DRSC02540 | 1.50e5 | 76950 | – | 4189 | 7712 | inactive
CG31219 | DRSC15140 | 5.89e5 | 95857 | – | 29460 | 2739 | inactive
CG8132 | DRSC16383 | 1.38e5 | 1.72e5 | – | 4304 | 4742 | inactive
CG32369 | DRSC10042 | 44374 | 58633 | – | 5355 | 3755 | inactive
CG32369 | DRSC10834 | 1.62e5 | 1.05e5 | – | 6599 | 4297 | inactive
Ir68a | DRSC10599 | 56514 | 43219 | 46944 | 4034 | 3527 | inactive
Tsp42Ei | DRSC06189 | 95371 | 51596 | – | 2376 | 4964 | inactive
CG4332 | DRSC19890 | 93505 | 57588 | – | 2867 | 1517 | inactive
CG18530 | DRSC15341 | 1.08e5 | 1.51e5 | – | 3094 | 4090 | inactive
CG15695 | DRSC15117 | 6.69e5 | 77456 | – | 32999 | 1883 | inactive
lectin-24Db | DRSC00553 | 1.09e5 | 1.18e5 | – | 4152 | 4992 | inactive
CG43052 | DRSC03059 | 1.78e5 | 63347 | – | 4472 | 6050 | inactive
asRNA:CR33945 | DRSC14080 | 4.58e5 | 2.17e5 | – | 22284 | 4358 | inactive
CG14926 | DRSC02409 | 1.51e5 | 1.04e5 | – | 3665 | 7946 | inactive
